From patent US20210230159A1, “4H-PYRIDO[1,2-A]PYRIMIDIN-4-ONE COMPOUNDS” (Prana Biotechnology Limited, priority 2014, published 2021)
At least one structure is not confirmed: it was looked up by name or label, or the drawing left a doubt.

Experiment: Hydrogen peroxide (H2O2) inhibition assay (fluorescence, DCF/horseradish peroxidase)
Assay type: biochemical
Conditions: for IC50: HCl salt tested where HCl salt MW is given; for Fe-ASC % (cf. 0.4 uM Fe/Asc; cf. CQ, CQ = 100%): ascorbic acid as reducing substrate; for Fe-ASC % (cf. 0.4 uM Fe/Asc; cf. CQ, CQ = 100%) / Fe-DA % (cf. 0.4 uM Fe/DA; cf. CQ, CQ = 100%): test compound 0.4 μM, lower values = greater inhibition of H2O2; for Fe-DA % (cf. 0.4 uM Fe/DA; cf. CQ, CQ = 100%): dopamine as reducing substrate
Protocol: Assay 1. Hydrogen Peroxide Assay
H2O2 is a strong oxidizer and a highly reactive oxygen species that is known to be toxic to surrounding proteins and organelles, inhibiting their function. […] […] H2O2 generated by the system is assessed by measuring the specific fluorescence profile at the excitation and emission wavelengths of 485 and 530 nm respectively, in the presence of test compound. Test compounds were dissolved in DMSO and tested at concentrations of 0.4 μM. Test compounds are ranked according to their capacity to inhibit H2O2 generated by the system where lower values reflect greater ability to inhibit H2O2 production.

Structure (SMILES) | IC50 | Fe-ASC % (cf. 0.4 uM Fe/Asc; cf. CQ, CQ = 100%) | Fe-DA % (cf. 0.4 uM Fe/DA; cf. CQ, CQ = 100%)
CCCNCc1cc(=O)n2cccc(O)c2n1 [Compound 1407] | 0.15 µM | 31% ASC | 
COc1ccc(CNC(=O)c2cnc3c(O)cccn3c2=O)cc1 [Compound 1431] | 0.44 µM | 71% ASC | 70%
COCCNC(=O)c1cnc2c(O)cccn2c1=O [Compound 1441] | 0.47 µM | >224% ASC | 55%
O=c1cc(CNc2ccccc2)nc2c(O)cccn12 [Compound 1449] | 0.47 µM | 144% ASC | 71%
O=c1cc(CNCc2ccc(Cl)cc2Cl)nc2c(O)cccn12 [Compound 1457] | 0.39 µM | 127% | 61%
